Laboratory results from the supplement of paper PMC10849652.
The list shows a part of the results.

Chains of the proteins cited; added tags and fusions are not shown. Lines headed by an entry give the natural chain unless they say otherwise; changes in a name come on top.
UniProt Q8IYA6: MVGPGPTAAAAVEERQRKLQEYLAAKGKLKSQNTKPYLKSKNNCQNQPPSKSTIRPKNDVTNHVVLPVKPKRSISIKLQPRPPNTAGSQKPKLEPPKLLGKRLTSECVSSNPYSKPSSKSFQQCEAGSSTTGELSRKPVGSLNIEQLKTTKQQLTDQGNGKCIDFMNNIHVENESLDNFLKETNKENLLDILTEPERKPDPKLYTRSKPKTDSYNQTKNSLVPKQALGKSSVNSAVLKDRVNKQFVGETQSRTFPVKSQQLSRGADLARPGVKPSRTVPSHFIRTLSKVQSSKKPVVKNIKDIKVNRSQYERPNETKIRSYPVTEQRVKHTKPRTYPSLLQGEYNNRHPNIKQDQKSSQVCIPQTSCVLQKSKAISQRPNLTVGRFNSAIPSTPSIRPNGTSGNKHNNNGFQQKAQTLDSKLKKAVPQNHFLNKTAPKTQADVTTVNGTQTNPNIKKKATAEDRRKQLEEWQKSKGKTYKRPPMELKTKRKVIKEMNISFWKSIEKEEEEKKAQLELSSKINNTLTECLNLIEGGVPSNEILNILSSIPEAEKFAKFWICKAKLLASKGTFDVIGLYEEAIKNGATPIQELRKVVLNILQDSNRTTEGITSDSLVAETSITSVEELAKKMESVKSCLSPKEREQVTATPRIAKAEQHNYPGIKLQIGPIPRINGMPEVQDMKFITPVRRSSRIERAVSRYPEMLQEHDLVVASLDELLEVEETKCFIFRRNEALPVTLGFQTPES
UniProt Q96JM3: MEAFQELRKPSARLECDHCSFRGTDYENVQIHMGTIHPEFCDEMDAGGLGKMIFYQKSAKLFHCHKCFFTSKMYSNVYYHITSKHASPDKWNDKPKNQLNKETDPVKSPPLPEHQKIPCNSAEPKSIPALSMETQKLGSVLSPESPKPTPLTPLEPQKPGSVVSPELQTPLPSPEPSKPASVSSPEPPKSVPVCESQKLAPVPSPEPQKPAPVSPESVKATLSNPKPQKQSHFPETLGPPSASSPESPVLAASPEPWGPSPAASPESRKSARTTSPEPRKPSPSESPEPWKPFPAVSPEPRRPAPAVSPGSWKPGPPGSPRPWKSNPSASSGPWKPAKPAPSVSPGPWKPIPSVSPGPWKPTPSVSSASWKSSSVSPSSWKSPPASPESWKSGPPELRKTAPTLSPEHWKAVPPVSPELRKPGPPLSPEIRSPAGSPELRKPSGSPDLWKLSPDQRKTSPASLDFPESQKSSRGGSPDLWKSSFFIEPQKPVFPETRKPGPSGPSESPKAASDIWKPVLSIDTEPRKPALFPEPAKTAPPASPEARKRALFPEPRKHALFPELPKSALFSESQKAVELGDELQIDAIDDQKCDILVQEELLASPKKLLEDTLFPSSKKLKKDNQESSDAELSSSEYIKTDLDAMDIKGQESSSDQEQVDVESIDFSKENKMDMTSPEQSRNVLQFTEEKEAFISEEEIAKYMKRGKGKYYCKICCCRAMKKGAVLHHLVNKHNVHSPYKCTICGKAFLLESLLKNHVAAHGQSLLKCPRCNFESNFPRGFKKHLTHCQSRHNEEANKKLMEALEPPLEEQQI
UniProt O14647: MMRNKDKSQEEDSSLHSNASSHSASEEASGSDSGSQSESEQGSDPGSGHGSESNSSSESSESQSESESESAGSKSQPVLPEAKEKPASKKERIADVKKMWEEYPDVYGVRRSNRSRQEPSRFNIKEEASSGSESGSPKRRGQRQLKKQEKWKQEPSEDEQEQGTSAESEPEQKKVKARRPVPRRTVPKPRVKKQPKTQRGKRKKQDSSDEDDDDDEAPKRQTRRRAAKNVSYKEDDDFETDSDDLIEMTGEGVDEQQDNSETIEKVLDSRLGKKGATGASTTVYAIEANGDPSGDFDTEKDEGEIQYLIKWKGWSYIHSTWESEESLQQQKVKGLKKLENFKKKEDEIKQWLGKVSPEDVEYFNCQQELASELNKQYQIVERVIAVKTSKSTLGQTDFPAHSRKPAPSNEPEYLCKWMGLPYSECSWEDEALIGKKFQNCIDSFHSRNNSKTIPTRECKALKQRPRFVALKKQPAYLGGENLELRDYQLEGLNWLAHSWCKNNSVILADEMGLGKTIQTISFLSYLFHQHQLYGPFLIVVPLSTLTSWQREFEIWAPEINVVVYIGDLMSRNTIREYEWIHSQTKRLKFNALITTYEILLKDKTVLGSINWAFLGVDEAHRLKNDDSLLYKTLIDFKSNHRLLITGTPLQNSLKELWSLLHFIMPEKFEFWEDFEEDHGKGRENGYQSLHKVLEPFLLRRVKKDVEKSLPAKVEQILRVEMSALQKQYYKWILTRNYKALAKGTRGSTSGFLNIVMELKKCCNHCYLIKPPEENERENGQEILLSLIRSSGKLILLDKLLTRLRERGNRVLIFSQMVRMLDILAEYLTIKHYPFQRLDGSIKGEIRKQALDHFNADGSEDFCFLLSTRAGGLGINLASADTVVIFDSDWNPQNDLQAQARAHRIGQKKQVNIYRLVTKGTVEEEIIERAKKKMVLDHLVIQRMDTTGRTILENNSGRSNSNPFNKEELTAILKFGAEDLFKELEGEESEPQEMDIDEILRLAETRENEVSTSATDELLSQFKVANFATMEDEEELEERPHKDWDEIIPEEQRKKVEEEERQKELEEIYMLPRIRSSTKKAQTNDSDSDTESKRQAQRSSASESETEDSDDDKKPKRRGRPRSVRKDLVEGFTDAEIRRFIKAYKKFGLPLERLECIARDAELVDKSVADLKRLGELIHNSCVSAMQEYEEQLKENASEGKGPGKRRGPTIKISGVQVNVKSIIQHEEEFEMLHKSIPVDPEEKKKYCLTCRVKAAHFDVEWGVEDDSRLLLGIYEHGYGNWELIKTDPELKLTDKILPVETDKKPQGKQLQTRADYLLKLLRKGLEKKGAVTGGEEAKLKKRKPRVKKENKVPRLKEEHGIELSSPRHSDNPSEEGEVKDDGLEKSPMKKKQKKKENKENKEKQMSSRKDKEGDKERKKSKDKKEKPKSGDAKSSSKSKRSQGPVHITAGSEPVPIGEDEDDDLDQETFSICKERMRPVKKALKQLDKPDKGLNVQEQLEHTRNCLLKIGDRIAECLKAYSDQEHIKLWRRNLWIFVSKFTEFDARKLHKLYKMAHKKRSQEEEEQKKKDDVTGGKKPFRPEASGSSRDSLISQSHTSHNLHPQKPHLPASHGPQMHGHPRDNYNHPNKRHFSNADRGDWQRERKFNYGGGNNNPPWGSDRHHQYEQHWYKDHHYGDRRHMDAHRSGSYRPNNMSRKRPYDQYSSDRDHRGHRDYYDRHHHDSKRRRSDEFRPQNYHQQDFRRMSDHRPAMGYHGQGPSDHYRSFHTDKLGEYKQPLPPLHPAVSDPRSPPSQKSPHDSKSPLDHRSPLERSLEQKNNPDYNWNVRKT
UniProt Q14677: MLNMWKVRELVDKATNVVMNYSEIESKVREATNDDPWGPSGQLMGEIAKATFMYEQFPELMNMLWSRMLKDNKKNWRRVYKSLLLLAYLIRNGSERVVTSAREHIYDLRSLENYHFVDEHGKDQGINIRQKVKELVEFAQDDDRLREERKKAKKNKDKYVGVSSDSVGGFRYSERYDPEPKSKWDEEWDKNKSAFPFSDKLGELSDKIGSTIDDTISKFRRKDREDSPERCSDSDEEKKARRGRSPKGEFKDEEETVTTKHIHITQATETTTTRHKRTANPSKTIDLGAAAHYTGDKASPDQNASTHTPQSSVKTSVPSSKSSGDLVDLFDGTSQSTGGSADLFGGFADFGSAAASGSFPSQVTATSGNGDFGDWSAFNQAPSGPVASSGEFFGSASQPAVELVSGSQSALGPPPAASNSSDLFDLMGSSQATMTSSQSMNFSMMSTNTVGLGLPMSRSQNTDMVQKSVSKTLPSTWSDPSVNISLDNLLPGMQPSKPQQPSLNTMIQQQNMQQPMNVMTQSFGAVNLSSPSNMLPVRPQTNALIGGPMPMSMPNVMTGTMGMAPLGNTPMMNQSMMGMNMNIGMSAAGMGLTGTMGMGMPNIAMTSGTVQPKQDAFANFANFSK
UniProt I3L2J0: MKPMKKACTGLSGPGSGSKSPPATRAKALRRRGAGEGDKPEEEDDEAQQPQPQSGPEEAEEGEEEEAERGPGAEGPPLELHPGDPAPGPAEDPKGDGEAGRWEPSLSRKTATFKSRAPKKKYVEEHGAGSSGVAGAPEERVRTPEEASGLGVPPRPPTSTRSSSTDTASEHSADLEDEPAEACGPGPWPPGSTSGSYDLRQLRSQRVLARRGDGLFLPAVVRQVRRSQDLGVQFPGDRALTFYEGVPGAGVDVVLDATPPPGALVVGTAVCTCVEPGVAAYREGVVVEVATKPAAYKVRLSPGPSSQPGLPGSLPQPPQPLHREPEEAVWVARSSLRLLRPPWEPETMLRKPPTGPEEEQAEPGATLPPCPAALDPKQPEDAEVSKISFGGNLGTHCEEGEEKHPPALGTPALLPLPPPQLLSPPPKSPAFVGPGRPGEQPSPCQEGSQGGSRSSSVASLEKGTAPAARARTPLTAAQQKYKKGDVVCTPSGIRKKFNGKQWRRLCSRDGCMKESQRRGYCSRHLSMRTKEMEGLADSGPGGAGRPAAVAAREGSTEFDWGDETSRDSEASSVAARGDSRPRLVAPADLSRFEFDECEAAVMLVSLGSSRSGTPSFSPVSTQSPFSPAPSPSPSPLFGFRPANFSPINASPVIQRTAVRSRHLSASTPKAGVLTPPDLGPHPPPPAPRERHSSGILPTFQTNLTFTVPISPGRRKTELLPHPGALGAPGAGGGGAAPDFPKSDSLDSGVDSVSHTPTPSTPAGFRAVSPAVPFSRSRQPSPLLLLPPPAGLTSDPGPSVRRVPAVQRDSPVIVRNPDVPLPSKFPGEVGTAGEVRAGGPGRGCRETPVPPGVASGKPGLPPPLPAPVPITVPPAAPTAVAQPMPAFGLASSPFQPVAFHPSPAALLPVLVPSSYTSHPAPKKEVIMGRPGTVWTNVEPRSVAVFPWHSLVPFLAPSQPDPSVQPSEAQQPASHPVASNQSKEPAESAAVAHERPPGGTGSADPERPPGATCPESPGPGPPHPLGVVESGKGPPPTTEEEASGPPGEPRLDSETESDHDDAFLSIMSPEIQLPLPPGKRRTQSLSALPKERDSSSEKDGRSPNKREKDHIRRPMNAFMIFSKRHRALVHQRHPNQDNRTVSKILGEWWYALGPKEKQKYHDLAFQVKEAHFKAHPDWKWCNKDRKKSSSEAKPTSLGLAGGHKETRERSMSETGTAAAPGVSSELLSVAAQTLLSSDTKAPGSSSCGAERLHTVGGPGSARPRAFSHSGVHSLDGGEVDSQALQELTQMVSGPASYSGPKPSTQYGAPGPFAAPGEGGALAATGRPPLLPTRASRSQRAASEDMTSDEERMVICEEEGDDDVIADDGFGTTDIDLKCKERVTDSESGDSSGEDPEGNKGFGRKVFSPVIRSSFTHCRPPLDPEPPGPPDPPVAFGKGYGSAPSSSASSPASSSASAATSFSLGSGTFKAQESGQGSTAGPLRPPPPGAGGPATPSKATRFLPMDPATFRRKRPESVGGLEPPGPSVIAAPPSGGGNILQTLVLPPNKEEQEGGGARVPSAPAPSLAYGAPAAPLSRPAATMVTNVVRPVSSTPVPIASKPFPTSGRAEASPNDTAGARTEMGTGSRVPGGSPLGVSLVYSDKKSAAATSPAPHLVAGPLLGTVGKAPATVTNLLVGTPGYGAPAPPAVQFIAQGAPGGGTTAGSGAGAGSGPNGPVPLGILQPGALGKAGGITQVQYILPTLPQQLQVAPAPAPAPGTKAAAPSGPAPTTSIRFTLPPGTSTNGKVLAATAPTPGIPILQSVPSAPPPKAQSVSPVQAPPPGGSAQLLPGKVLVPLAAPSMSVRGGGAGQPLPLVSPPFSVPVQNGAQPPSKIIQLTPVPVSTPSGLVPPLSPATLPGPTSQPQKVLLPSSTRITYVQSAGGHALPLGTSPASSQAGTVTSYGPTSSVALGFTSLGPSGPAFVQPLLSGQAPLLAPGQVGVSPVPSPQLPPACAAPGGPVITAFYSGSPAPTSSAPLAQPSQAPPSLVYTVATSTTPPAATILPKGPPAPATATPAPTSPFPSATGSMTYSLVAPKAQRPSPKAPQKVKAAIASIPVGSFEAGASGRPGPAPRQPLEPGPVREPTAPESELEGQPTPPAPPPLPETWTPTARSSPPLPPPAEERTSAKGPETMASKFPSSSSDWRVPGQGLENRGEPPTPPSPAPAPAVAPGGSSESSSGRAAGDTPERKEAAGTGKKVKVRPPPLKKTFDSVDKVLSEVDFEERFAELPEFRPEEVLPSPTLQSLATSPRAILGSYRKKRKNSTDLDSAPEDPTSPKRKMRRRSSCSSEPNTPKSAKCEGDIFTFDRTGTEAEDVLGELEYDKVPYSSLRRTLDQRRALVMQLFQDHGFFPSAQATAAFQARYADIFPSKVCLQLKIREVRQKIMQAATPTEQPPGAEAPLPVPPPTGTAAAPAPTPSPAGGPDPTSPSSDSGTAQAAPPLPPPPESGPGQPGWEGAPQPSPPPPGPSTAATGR

Columns and labels:
Test in all cases: log2 fold change, soluble protein after heating vs DMSO (PISA); higher = thermal stabilisation; K562 lysate, 10 uM; active = over 0.2 and 3.5 SD of the protein, either way, in both replicates (recomputed)
[1] = compound: NCC(=O)Nc1ccc(-n2nc(C(F)(F)F)cc2-c2ccc3c(ccc4ccccc43)c2)cc1
Procedure, shortened: (§1)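 Soluble protein was defined as the supernatant remaining after 21,000xg for 90 min, following pooling of heated aliquots and adjustment to 0.5% NP-40 at 4°C. Before that, crude K562 extract at 1 mg/mL protein in PBS pH 7.4 with 1 mM MgCl2 was treated with 10 μM compound for 30 min and heated for 3 min across 48°C-58°C. Quantification used TMTpro 16plex LC-MS/MS with channel sums equalised, and values are log-two fold changes in thermal stability relative to solvent controls from duplicates.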

vorinostat = compound: O=C(CCCCCCC(=O)Nc1ccccc1)NO [vorinostat]
Procedure, shortened: as §1

silmitasertib = compound: O=C(O)c1ccc2c(c1)nc(Nc1cccc(Cl)c1)c1ccncc12 [silmitasertib]
Procedure, shortened: as §1

[2] = compound: O=C1NC(=O)C(c2cnc3ccccn23)=C1c1cn2c3c(cc(F)cc13)CN(C(=O)N1CCCCC1)CC2
Procedure, shortened: as §1

entospletinib = compound: c1cn2cc(-c3ccc4cn[nH]c4c3)nc(Nc3ccc(N4CCOCC4)cc3)c2n1 [entospletinib]
Procedure, shortened: as §1

Target	log2 fold change [1]	log2 fold change (vorinostat)	log2 fold change (silmitasertib)	log2 fold change [2]	log2 fold change (entospletinib)
CLIC1 (UniProt O00299)	inactive: -0.01	inactive: -0.094	inactive: -0.008	inactive: -0.019	inactive: 0.009
CLYBL (UniProt Q8N0X4)	inactive: 0.023	–	–	inactive: 0.15	inactive: -0.044
CLSPN (UniProt Q9HAW4)	inactive: 0	inactive: 0.045	inactive: -0.043	inactive: -0.013	inactive: 0.016
CKAP2L (UniProt Q8IYA6)	inactive: 0.108	inactive: -0.029	inactive: 0.089	inactive: 0.003	inactive: -0.254
CHAMP1 (UniProt Q96JM3)	inactive: -0.051	inactive: 0.017	inactive: -0.024	inactive: -0.001	inactive: -0.002
CLUAP1 (UniProt Q96AJ1)	inactive: -0.04	inactive: -0.197	inactive: -0.053	inactive: 0	inactive: -0.079
CHD2 (UniProt O14647)	inactive: 0.114	–	–	inactive: 0.039	inactive: -0.02
CLINT1 (UniProt Q14677)	inactive: -0.147	–	–	inactive: -0.127	inactive: 0.077
CLIP1, A0A3B3ITA2	inactive: 0.136	–	–	inactive: 0.068	–
CIC (UniProt I3L2J0)	inactive: -0.002	inactive: -0.108	inactive: -0.011	inactive: 0.075	inactive: 0.033
CHORDC1 (UniProt Q9UHD1)	inactive: 0.001	inactive: -0.014	inactive: -0.019	inactive: -0.009	inactive: 0
CHD3 isoform 3 (UniProt Q12873)	inactive: 0.022	active: -0.316	inactive: 0.032	inactive: -0.004	inactive: 0.002
CLIC2 (UniProt O15247)	inactive: 0.022	active: -0.369	inactive: -0.018	inactive: 0.029	inactive: 0.005
CLCN7 (UniProt P51798)	inactive: -0.014	inactive: 0.049	inactive: -0.002	inactive: -0.032	inactive: 0.012

Two records picked at random from the list so far:
Target	log2 fold change [1]	log2 fold change (vorinostat)	log2 fold change (silmitasertib)	log2 fold change [2]	log2 fold change (entospletinib)
CLINT1 (UniProt Q14677)	inactive: -0.147	–	–	inactive: -0.127	inactive: 0.077
CLUAP1 (UniProt Q96AJ1)	inactive: -0.04	inactive: -0.197	inactive: -0.053	inactive: 0	inactive: -0.079
